Measurements from “University of Dundee, Small-Polar-MMV Screening Library” (2021), ChEMBL document CHEMBL3988442.

By UniProt entry, the sequences of proteins in these tests, tags left out. Residues count along the entry.
UniProt P9WPC5, whole entry: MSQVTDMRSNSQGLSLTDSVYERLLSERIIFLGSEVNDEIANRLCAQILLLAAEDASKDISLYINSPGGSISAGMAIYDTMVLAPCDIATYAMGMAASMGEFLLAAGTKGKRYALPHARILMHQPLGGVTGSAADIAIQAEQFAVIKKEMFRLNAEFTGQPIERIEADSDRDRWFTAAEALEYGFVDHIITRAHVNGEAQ
UniProt P9WPC3, whole entry partner: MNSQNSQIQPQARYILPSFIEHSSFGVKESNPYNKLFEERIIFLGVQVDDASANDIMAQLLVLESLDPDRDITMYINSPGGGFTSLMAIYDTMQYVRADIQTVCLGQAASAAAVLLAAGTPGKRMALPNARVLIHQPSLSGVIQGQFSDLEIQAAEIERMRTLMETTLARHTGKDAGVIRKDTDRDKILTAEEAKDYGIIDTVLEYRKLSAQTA
UniProt Q4DA54, 1-478: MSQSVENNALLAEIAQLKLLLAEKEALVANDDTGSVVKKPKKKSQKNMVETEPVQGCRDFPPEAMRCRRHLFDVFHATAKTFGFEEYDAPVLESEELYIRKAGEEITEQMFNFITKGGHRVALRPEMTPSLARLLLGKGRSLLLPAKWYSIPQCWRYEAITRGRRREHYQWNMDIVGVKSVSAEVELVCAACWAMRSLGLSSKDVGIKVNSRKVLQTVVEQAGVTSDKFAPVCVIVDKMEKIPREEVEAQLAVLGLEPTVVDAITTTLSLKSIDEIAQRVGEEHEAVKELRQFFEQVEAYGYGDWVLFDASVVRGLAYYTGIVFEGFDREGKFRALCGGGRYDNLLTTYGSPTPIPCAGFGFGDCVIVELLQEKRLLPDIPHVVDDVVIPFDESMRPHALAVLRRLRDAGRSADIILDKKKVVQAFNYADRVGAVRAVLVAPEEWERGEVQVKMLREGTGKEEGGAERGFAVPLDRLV
UniProt P9WNZ1, whole entry: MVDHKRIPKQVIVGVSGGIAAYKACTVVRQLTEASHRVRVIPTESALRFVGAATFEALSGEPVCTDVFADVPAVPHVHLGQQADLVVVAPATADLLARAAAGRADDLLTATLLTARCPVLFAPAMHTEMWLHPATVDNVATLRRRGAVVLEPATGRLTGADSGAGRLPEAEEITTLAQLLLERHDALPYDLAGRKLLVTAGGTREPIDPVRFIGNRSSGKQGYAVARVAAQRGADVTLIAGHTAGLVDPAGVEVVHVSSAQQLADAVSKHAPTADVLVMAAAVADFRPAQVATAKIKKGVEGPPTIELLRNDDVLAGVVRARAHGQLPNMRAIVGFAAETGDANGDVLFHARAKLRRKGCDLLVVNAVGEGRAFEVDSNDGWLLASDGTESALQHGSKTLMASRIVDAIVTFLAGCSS

ClpP1P2: 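ClpP1P2, Mycobacterium tuberculosis (UniProt P9WPC5 and UniProt P9WPC3). Protease assay of ClpP1P2, read by the AMC dye that it sets free. Concentration: 50 µM. Direction is inferred from only a few compounds that gave an IC50; most scored high, so higher reads as stronger inhibition. Most other retested compounds had strongly negative values. Size under these conditions: about 69,000 compounds, about 10 of them at 50% or above in at least one test.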
Toxoplasma: 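Assay of Toxoplasma gondii numbers, read through their beta-galactosidase reporter with a colour substrate. Concentration: 10 µM. Higher reads as fewer parasites (inferred from which compounds were picked for retests). Size under these conditions: about 67,000 compounds, about 260 of them at 50% or above in at least one test.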
Leishmania in macrophages: 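Cell assay of Leishmania donovani living inside macrophages; the read-out is not stated. Tested at 30 µM. Higher reads as stronger inhibition (inferred: compounds with an IC50 in retests scored well above the rest). Size under these conditions: about 69,000 compounds, about 1,000 of them at 50% or above in at least one test.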
TcHisRS: 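Enzyme assay of histidyl-tRNA synthetase; the read-out is not stated. Target: Histidine-tRNA ligase, Trypanosoma cruzi CL Brener (UniProt Q4DA54). Compounds at 30 µM. The record gives no direction; compounds that gave an IC50 in retests scored well above the rest, so higher reads as stronger inhibition. About 69,000 compounds were tested under these conditions; 0.045% (about 31) showed 50% or more at least once.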
CoaBC: 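Coenzyme A biosynthesis protein CoaBC, Mycobacterium tuberculosis (UniProt P9WNZ1). Enzyme assay of CoaBC with a phosphate dye (Biomol Green) read at 650 nm. Compounds at 30 µM. Higher reads as stronger inhibition, judged from the few compounds that gave an IC50. Most strong results did not repeat in a second test. About 67,000 compounds were tested under these conditions; 0.06% (about 40) showed 50% or more at least once.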

Results are given as percent effect.
The record does not define 0% and 100%; most values in the screen are far below 50% and negative numbers occur (in some assays of this library far below -100).
The compounds are a random part of those screened.
Two or more numbers in one place are separate tests of the same structure; such repeats can differ widely.
A dash means the value is not listed here; it may have been measured.

structure | ClpP1P2 | Toxoplasma | Leishmania in macrophages | TcHisRS | CoaBC
CCC1CN(C(=O)c2ccccc2C#N)CCN1C(C)C (stereo unspecified) | -1.74 | 4.4 | -1.948 | 6.931 | -3.426
CCc1nc2c(NCC3COc4ccccc4C3)ncnc2o1 (stereo unspecified) | -8.966 | 8.012 | 35.57 | 7.853 | 8.025
O=C(c1cc[nH]n1)N1CCC(F)(F)C2(CCN(c3ccccn3)C2)C1 (stereo unspecified) | 12.91 | - | - | 2.151 | 3.579
COCCN1C(=O)[C@H]2CC[C@@H]1CN(S(=O)(=O)c1ccc(C#N)cc1)C2 | -10.49 | - | - | 6.25 | 3.899
CCN(Cc1noc(C2CCC2)n1)C(=O)CCc1cc2n(n1)CCNC2 | -7.89 | 7.16 | -1.072 | 3.804 | -24.79
CCOC[C@@H]1CC[C@H]2[C@H](CCN2C(=O)c2cnccn2)O1 | -20.77 | - | - | 5.607 | -0.4938
Cc1c(NC(=O)NC2CCOCC2)cccc1C(=O)N1CCCC1 | 24.39 | 11.22 | -7.355 | 2.062 | -3.302
CC(C)NC(=O)CCCn1cnc2ccccc2c1=O | 24.01 | 34.04 | 10.03 | 4.95 | -2.651
Cc1ccc(NC2CCCN(CCc3ccccc3)C2)nn1 (stereo unspecified) | -9.98 | 13.43 | -22.67 | 12.12 | -2.02
OC1(CNCc2cnc(N3CCOCC3)nc2)CCCCC1 | -4.341 | 26.43 | -9.89 | 0.8772 | -11.83
O=C(C1CCSCC1)N1CCC2(CC1)COC(COCC1CC1)C2 (stereo unspecified) | 3.179 | -0.3976 | 1.856 | 4.813 | 2.5
Cc1cccc(CN2CCC(c3csc4nccn34)CC2)n1.O=CO | - | 15.11 | 37.63 | - | -
CCn1nnc2c1C(COCCN(C)C)CN(Cc1ccc(C)s1)C2.O=C(O)C(F)(F)F.O=C(O)C(F)(F)F (stereo unspecified) | - | 9.803 | -7.067 | - | -
Cc1cnn(CC2CCCCN2c2ncnc3ccccc23)c1 (stereo unspecified) | -4.546 | -4.104 | 17.62 | 1.961 | -0.813
Cc1ncsc1C(=O)N1CCC(Nc2cccnn2)CC1 | -24.4 | 2.581 | 3.323 | 0 | 4.842
CNS(=O)(=O)c1ccc(CNC(=O)NCc2cc[nH]n2)cc1 | 2.877 | 0.5008 | 3.698 | 9.524 | 1.597
CN(Cc1cnn(C)c1)CC1CCCN1c1cccnn1 (stereo unspecified) | -46.58 | -6.244 | 9.91 | 0.8746 | 4.178
COCCN1CCC(CN(Cc2ccncc2)C2CCC2)CC1 | -6.117 | 10.62 | 25.72 | 1.622 | 12.73
[H][C@@]12COC[C@]1(C(=O)NCc1cccs1)CN(C)C2 | - | 5.683 | 5.064 | - | -
O=C(Nc1ccccc1-c1cccs1)N1CCOCC1 | 3.539 | -4.123 | 8.057 | 6.494 | -
CCS(=O)(=O)N1CCCC2(CCCN2C(=O)c2cn(C)cn2)C1 (stereo unspecified) | 4.754 | 3.048 | 33.13 | 1.149 | 13.32
COCCc1noc(CN2CCCC2Cn2cccn2)n1 (stereo unspecified) | 8.798 | -9.434 | 4.088 | 7.471 | 1.677
Cc1nc(Nc2nnc(C)s2)cc(C2CCCN2c2ccncn2)n1 (stereo unspecified) | -6.247 | 11.96 | -2.613 | 2.996 | 5.328
CC(NCCCn1ccnc1)c1ccc(N2CCCS2(=O)=O)cc1 (stereo unspecified) | 14 | 1.942 | -18.53 | -1.911 | -
Cc1noc(C)c1CCC(=O)N1CCN(CCn2cncn2)CC1 | 5.307 | 4.594 | 32.95 | 4.065 | -3.376
Fc1ccc(N2CCOC(Cc3cccnc3)C2)cc1 (stereo unspecified) | 5.859 | -35.72 | -12.15 & -22.25 | 5.224 | 0.4866
c1cncc(CC2CN(c3cccnc3)CCO2)c1 (stereo unspecified) | -8.084 | -11.18 | -3.923 & 11.92 | 2.239 | 1.703
[H][C@@]12CS(=O)(=O)C[C@]1([H])N(C(=O)CSc1ccccn1)CCN2CC=C(C)C | - | 16.82 | -1.389 | - | -
Cc1cncc(C(=O)N2C[C@@H](C(=O)O)[C@H](C(C)C)C2)c1 | -7.366 | 12.74 | -20.5 | 6 | 6.116
CC(C)c1sc(Cl)nc1C(=O)N1CCN(c2ccccc2)CC1 | -12.97 | -32.22 | -25.04 | -1.242 | -0.3797

2 of the entries, repeated:

{"structure": "CCOC[C@@H]1CC[C@H]2[C@H](CCN2C(=O)c2cnccn2)O1", "ClpP1P2": -20.77, "TcHisRS": 5.607, "CoaBC": -0.4938}
{"structure": "CC(C)c1sc(Cl)nc1C(=O)N1CCN(c2ccccc2)CC1", "ClpP1P2": -12.97, "Toxoplasma": -32.22, "Leishmania in macrophages": -25.04, "TcHisRS": -1.242, "CoaBC": -0.3797}